This is an account of results in patent US9796727B2, “Field effect transistor” (Nippon Kayaku Kabushiki Kaisha, priority 2009, dated 2017).

Molecules are shown by their SMILES.

Data set [1] is described as follows: TC field effect transistor, semiconductor film drop cast from 1-chloronaphthalene solution. The note with it: for film forming by coating method: drop casting as in Example 9.
Data set [2] is described as follows: Top-contact (TC) field effect transistor, vapor-deposited semiconductor layer on HMDS-treated 300 nm SiO2/n-doped silicon. The note with it: TC type; for Mobility: produced as in Example 2 (Table 3).
Data set [3] is described as follows: Bottom-contact (BC) field effect transistor, vapor-deposited semiconductor layer, with and without heat treatment. The note with it: BC type; for Mobility after annealing: after annealing as in Example 6 (150° C., air, 1 hour); for Mobility: no annealing (Table 5).
A short description of data set [4]: BC field effect transistor, semiconductor layer spin coated from fine-particle dispersion ink. The note with it: BC type, spin coating.
A short description of data set [5]: TC field effect transistor with organic (polyimide) insulating film on ITO glass. The note with it: TC type, drain voltage −60 V.
Data set [6] in a line: BC field effect transistor, semiconductor layer cast coated from 1,2-dichlorobenzene ink. The following applies: BC type, cast coating, 0.5% solution in 1,2-dichlorobenzene at 100° C.

Consider `CCCCCCCCc1ccc2cc3c(cc2c1)sc1c2cc4ccc(CCCCCCCC)cc4cc2sc31` [Compound No. 10, 6,6′-dioctyldinaphtho[2,3-b:2′,3′-f]thieno[3,2-b]thiophen], for which the carrier mobility in data set [1] (TC type, drop casting of 1-chloronaphthalene solution (200° C.), dried at 60° C.) is on record as 0.17 cm^2/Vs; in data set [2] (vapor deposition, HMDS-treated 300 nm SiO2, substrate about 60° C.), 3.1 cm^2/Vs; in data set [3] (vapor deposition, no heat treatment), 0.68 cm^2/Vs. The Mobility in data set [2] is 3.1; in data set [3] it was 0.68. In data set [2] (vapor deposition, HMDS-treated 300 nm SiO2), the threshold voltage is reported as −10 V. The compound further had a Mobility after annealing in data set [3] of 1.0. For the same compound, in data set [3] (heat-treated at 150° C. in the air for 1 hour), the “carrier mobility after heat treatment” value worked out at 1.00 cm^2/Vs.

Take `CCCCCCCCCCc1ccc2cc3c(cc2c1)sc1c2cc4ccc(CCCCCCCCCC)cc4cc2sc31` [Compound No. 12, 6,6′-Didecyldinaphtho[2,3-b:2′,3′-f]thieno[3,2-b]thiophen]: in data set [4] (1.02% dispersion in 2-propanol), the ON/OFF ratio is 1.10×10^6, the carrier mobility is listed as 3.93×10^−2 cm^2/Vs and the threshold voltage is listed as −16.7 V. Also, the carrier mobility in data set [4] (2.0% dispersion in tetralin, heat treated at 140° C. for 5 min) is 1.84×10^−2 cm^2/Vs. In data set [5], the carrier mobility was found to be 3.9 cm^2/Vs and the threshold voltage is reported as −8 V. Moreover, the Mobility in data set [2] amounted to 3.7.

Turning to `CCCCCCCCCCCCc1ccc2cc3c(cc2c1)sc1c2cc4ccc(CCCCCCCCCCCC)cc4cc2sc31` [Compound No. 14, 6,6′-Didodecyldinaphtho[2,3-b:2′,3′-f]thieno[3,2-b]thiophen], the carrier mobility in data set [6] is 0.04 cm^2/Vs. Further, in data set [3], the Mobility after annealing was 2.3 and the Mobility came out at 0.3.

Compound `CCCCCCc1ccc2cc3c(cc2c1)sc1c2cc4ccc(CCCCCC)cc4cc2sc31` [compound 6, 6,6′-Dihexyldinaphtho[2,3-b:2′,3′-f]thieno[3,2-b]thiophen] showed a Mobility in data set [2] of 2.8.

Take `c1ccc2cc3c(cc2c1)sc1c2cc4ccccc4cc2sc31` [ref. 1, dinaphtho[2,3-b:2′,3′-f]thieno[3,2-b]thiophene, reference compound]: the “film forming by coating method” value in data set [1] is recorded as “film forming was not achieved”. This compound gave a Mobility in data set [2] of 1.2. In data set [3], the Mobility after annealing was determined as 0.06 and the Mobility is listed as 0.11.

Regarding `CCCCc1ccc2cc3c(cc2c1)sc1c2cc4ccc(CCCC)cc4cc2sc31` [ref. 2, 6,6′-Dibutyldinaphtho[2,3-b:2′,3′-f]thieno[3,2-b]thiophen, reference compound], the “film forming by coating method” value in data set [1] was “film forming was not achieved”. This compound yielded a Mobility in data set [2] of 0.25. In data set [3], this compound displayed a Mobility after annealing of 0.01 and a Mobility of 0.10.
